Measurements from “University of Dundee, Small-Polar-MMV Screening Library” (2021), ChEMBL document CHEMBL3988442.

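Whole-parasite assay of Trypanosoma brucei over 72 hours; the read-out is not stated. Tested at 30 µM. Higher reads as stronger inhibition (inferred: compounds with an IC50 in retests scored well above the rest). Values scatter widely below zero; nearly all retest evidence comes from the higher of the two concentrations used. Of about 64,000 compounds tested this way, about 940 (1.5%) reached 50% or more in at least one test.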

Each number is a percent effect as filed. The controls that fix the scale are not given in the record; negative values are as filed. The compounds are a random part of those screened.

COc1cc(C(=O)NC(CC(=O)O)c2cccs2)cc(Cl)c1OC (stereo not drawn) read -2.984%.
CN(C(=O)Cc1coc(-c2ccccc2)n1)C1(C#N)CCC1 read -31.65%.
Cc1ccc(-c2nc(CCNC(=O)CCN3CCOC3=O)co2)cc1 read 16.98%.
Cn1ncc2c1C(COCC1CC1)CN(S(C)(=O)=O)C2 (stereo not drawn) read -6.009%.
CCCNC(=O)CCC(=O)Nc1cc2sc(C)nc2cc1OC read -29.93%.
CNC(=O)CN(C(=O)c1ccc(SC)o1)c1cccc(F)c1 read -5.207%.
[H][C@@]12CCN(S(=O)(=O)Cc3ccccc3)[C@]1([H])CCC(=O)N2C read -49.38%.
COc1ccc(Cn2c(Cc3c(C)n[nH]c3C)n[nH]c2=O)cc1 read -23.77%.
Cc1ccc2c(c1)c(C)cc(=O)n2CCC#N read -15.41%.
CC(=O)c1cc2ncc(C(=O)NC3CCCCC3)cc2[nH]1 read -1.89%.
Cc1nc(-c2noc3ccc(C(=O)NCCN4CCOCC4)cc23)co1 read -46.64%.
CCc1nc2c(s1)C(N(C)C(=O)c1cc[nH]n1)CCC2 (stereo not drawn) read 6.523%.
O=C(Cn1cnc(-c2cccs2)cc1=O)Nc1cccnc1 read 16.34%.
c1ccc(OCCNC2CCN(c3ncccn3)CC2)cc1 read -13.04%.
CC(CCn1cccn1)N1CCC(n2cc(C(C)(C)N)nn2)CC1 (stereo not drawn) read -0.8764%.
Cc1cc(CC(C)NC2CCSCC2)[nH]n1 (stereo not drawn) read 5.945%.
Cc1ccc(NC(=O)Cc2c(C)nc3c(c2C)c(=O)[nH]n3C)cc1F read 4.811%.
CC(C)n1ccnc1CN1CCCN(C(=O)c2cccnc2O)CC1 read -16.49%.
Cn1c(CN2CCOCC2)nnc1C1CCCN(CC(N)=O)C1 (stereo not drawn) read -31.16%.
CC(C)n1cc(C(=O)NCCCc2csc(N)n2)cn1 read 4.47%.
COc1ccc(OC)c(C2CC(=O)Nc3nc(N4CCOCC4)sc32)c1 (stereo not drawn) read -31.63%.
COCC(=O)N1CCCC1c1cc(N2CCN(C(C)=O)CC2)cc(C)n1 (stereo not drawn) read 16.18%.
CC(NC(=O)NCCCOc1ccccc1F)c1nncn1C (stereo not drawn) read 21.07%.
Cc1c(F)cccc1S(=O)(=O)NCCN.Cl read -9.02%.
COC(C)c1nc(CN2CCNCC2)cs1 (stereo not drawn) read -26.97%.
Cc1ncc(S(C)(=O)=O)c(N2Cc3ccccc3C2)n1 read -20.27%.
CCSc1cc(C(=O)N(Cc2cnn(C)c2)C(C)C)ccn1 read -8.245%.
CC(Oc1cc(Cl)cc(Cl)c1)C(=O)NCCOCC(N)=O (stereo not drawn) read -38.37%.
O=C(O)C(F)(F)F.O=C(O)C(F)(F)F.O=C(O)C(F)(F)F.[H][C@@]12CCC(=O)N(Cc3cccc(C)n3)[C@]1([H])CCN2Cc1cccnc1 read -2.508%.
COCC1CCCN(c2cncc(OCc3ccccc3)n2)C1 (stereo not drawn) read -25.15%.
CC(C)C(Sc1nnnn1C1CC1)C(=O)NCc1ccccc1 (stereo not drawn) read -5.564%.
CCN1CCN(C)C(=O)C12CCN(C(=O)Cc1ccccn1)CC2.O=C(O)C(F)(F)F read -15.68%.
CC(NCCCC#N)c1ccc(-c2cccnc2)cc1 (stereo not drawn) read 7.885%.
COCCn1ccc2cc(NC(=O)N(C)C(C)CSC)ccc21 (stereo not drawn) read 44.28%.
CCOc1ncnc2c1CCN(S(=O)(=O)CC)CC2 read -75.74%.
CC(C(=O)N1CCCN(Cc2ccc(C#N)cc2)CC1)n1ccnc1 (stereo not drawn) read -58.61%.
CS(=O)(=O)N1CCN(C(=O)c2cncs2)CC(C(N)=O)C1 (stereo not drawn) read -2.531%.
O=C1CSC(c2ccsc2)c2sccc2N1 (stereo not drawn) read 20.88%.
CCc1nc(CN2CC(C(=O)OC)O[C@H](C)C2)cs1 (stereo partly drawn) read 1.391%.
CCOc1ncnc2c1CCN(C(=O)NCc1cccnc1)CC2.O=C(O)C(F)(F)F read -191.2%.
CCC(C)N(C)CCNC(=O)c1ccccc1OCCOC (stereo not drawn) read -0.6985%.
COc1ccccc1OC1CN(Cc2ccc(C(=O)O)cc2)C1 read -61.33%.
CN1CCN(Cc2cn3c(n2)CN(C(=O)N2CCOCC2)CC3)CC1.O=C(O)C(F)(F)F.O=C(O)C(F)(F)F read 31.87%.
CN(C)CCN(CC1CCCO1)C(=O)Cc1cn2ccccc2n1 (stereo not drawn) read -52.24%.
Cc1cccnc1CN1CCN(C(=O)CCn2ccccc2=O)CC1 read -28.26%.
CN(c1ncnc2c1cnn2C)C1CCCN(c2cccnn2)C1 (stereo not drawn) read -46.78%.
O=C(Cc1cccc(F)c1)NCCNS(=O)(=O)C1CCCC1 read -18.69%.
Cc1ccc(OCC(C)NS(C)(=O)=O)cc1 (stereo not drawn) read -13.84%.
Cc1cc(C)cc(CN2CCN(Cc3cccc(CCN)c3)CC2=O)c1 read 35.33%.
c1ccc(-c2nccc(N3CCc4c(ncn4C4CC4)C3)n2)cc1 read -633.4%.
O=C(CCN1CCCC1c1cccc2c1OCCO2)N1CCCCC1 (stereo not drawn) read -13.36%.
O=C(NCc1cccc(F)c1)N1CCC2(CC(=O)N(c3ccsc3)C2)C1 (stereo not drawn) read 4.062%.
Cc1ccc(NCc2ccco2)cc1N1CCOC1=O read -49.45%.
Cc1nc(COc2ccc(OC(C)C(N)=O)cc2)oc1C (stereo not drawn) read -39.79%.
O=C(O)C(F)(F)F.O=C(c1ccccn1)N1CCCC2(CCN(c3ccsc3)C2=O)C1 (stereo not drawn) read -120.5%.
CCOCCN1Cc2ncn(C)c2C(COCC2CCOCC2)C1.O=C(O)C(F)(F)F.O=C(O)C(F)(F)F (stereo not drawn) read -9.985%.
Cc1cc(Cn2c(=O)c3c(C(F)(F)F)cc(C)nc3n2C)on1 read 0.3212%.
O=C(NCC1(O)CCC1)c1cccc(-n2cccn2)c1 read -23.49%.

Some entries from above, unchanged:

Cc1cc(Cn2c(=O)c3c(C(F)(F)F)cc(C)nc3n2C)on1 gave 0.3212%.
CCc1nc(CN2CC(C(=O)OC)O[C@H](C)C2)cs1 (stereo partly drawn) gave 1.391%.
O=C(Cc1cccc(F)c1)NCCNS(=O)(=O)C1CCCC1 gave -18.69%.
COc1ccc(Cn2c(Cc3c(C)n[nH]c3C)n[nH]c2=O)cc1 gave -23.77%.
Cc1ccc(-c2nc(CCNC(=O)CCN3CCOC3=O)co2)cc1 gave 16.98%.